PubChem BioAssay AID743454 – Peter MacCallum Cancer Centre, 2014
This is one part, drawn at random, of about 18,000 deposited reagents. Over the whole deposit, 450 (2.5%) were called active. 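Single biological run; no consistent viability z cut-off exists, so the class columns, not z-scores, define the calls.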

Screen: 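Genes whose loss kills vorinostat-resistant colon cancer cells under vorinostat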 (primary screen)
System: human HCT116-VR colon cancer cells, selected for vorinostat resistance
Knock-down reagent: siRNA pool against human genes, 40 nM siRNA pool
Time to read-out: vorinostat for 24 h, read-out about 72 h after transfection
Conditions: vorinostat at 2.5 µM final
Measurement: 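Two measures, CellTiter-Fluor viability and luminescent caspase 3/7 activity, each as fold change against same-plate mock wells, mean of duplicates, then screen-wide robust z-score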
Reading the numbers: viability robust z-score: higher = more viable cells than screen typical; caspase robust z-score: higher = more caspase 3/7 activity than screen typical
Rule for the call: 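a knock-down is a hit when classed RV1 or RV2 for lowered viability, or CA1 or CA2 for caspase activation; those lethal without drug were dropped; hits were retested singly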

ZMAT2 scored viability hit class no change; caspase hit class no change; viability robust z-score -1.63; caspase robust z-score 0.93; inactive.
Depletion of TMSB4XP8 resulted in: viability hit class no change; caspase hit class no change; viability robust z-score -0.32; caspase robust z-score -0.66; inactive.
For PCMT1, the entry reads viability hit class no change; caspase hit class no change; viability robust z-score 0.66; caspase robust z-score 0.15; inactive.
Knock-down of ERAP1 resulted in: viability hit class no change; caspase hit class no change; viability robust z-score -0.55; caspase robust z-score -0.75; inactive.
With knock-down of GOT2, the screen gave viability hit class no change; caspase hit class no change; viability robust z-score 0.68; caspase robust z-score -0.59; inactive.
TMEM89 scored viability hit class no change; caspase hit class no change; viability robust z-score -3.73; caspase robust z-score 0.18; inactive.
ATP11AUN gave viability hit class no change; caspase hit class no change; viability robust z-score 1.34; caspase robust z-score 0.22; inactive.
Knock-down of ALDH4A1 came out at: viability hit class no change; caspase hit class no change; viability robust z-score 0.2; caspase robust z-score -0.66; inactive.
For ARHGAP22, the entry reads viability hit class no change; caspase hit class no change; viability robust z-score 1.25; caspase robust z-score -0.57; inactive.
Against PPARGC1A, the entry reads viability hit class no change; caspase hit class no change; viability robust z-score -0.08; caspase robust z-score -1.18; inactive.
S100A4 gave viability hit class no change; caspase hit class no change; viability robust z-score -1.36; caspase robust z-score -0.17; inactive.
Against HMGB2, the values are viability hit class no change; caspase hit class no change; viability robust z-score -0.72; caspase robust z-score 2.52; inactive.
Depletion of NDUFA1 gave: viability hit class no change; caspase hit class no change; viability robust z-score -2.42; caspase robust z-score 2.16; inactive.
Depletion of PLEKHN1 gave: viability hit class no change; caspase hit class no change; viability robust z-score -0.99; caspase robust z-score 0.48; inactive.

Copied from the entries so far for reference:
HMGB2 | viability hit class: no change; caspase hit class: no change; viability robust z-score: -0.72; caspase robust z-score: 2.52; call: inactive
NDUFA1 | viability hit class: no change; caspase hit class: no change; viability robust z-score: -2.42; caspase robust z-score: 2.16; call: inactive
